For one substance, binding results are on record in publication PMC11289294.

By UniProt entry, the sequences of proteins in these tests, tags left out.
UniProt P19474: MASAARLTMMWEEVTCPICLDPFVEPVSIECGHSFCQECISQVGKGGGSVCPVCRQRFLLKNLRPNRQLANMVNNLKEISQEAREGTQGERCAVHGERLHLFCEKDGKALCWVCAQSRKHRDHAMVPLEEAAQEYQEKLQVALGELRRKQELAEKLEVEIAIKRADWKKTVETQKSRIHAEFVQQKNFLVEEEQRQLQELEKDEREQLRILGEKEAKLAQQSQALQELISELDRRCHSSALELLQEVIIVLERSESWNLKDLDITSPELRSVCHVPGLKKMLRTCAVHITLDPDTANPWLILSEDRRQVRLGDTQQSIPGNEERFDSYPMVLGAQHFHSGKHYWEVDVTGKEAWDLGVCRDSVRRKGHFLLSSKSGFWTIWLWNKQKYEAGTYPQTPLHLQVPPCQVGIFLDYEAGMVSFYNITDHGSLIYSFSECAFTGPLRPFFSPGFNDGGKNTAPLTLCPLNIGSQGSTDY

Results are given in words; binding and its absence hold for the method and conditions named. Binding seen in cells or lysates may run through a third protein. Here binding means that the protein was enriched with, or labelled near, the bait; the list need not be complete. Where a sequence is shown, tags or fusion partners need not be part of it.

The assay has as its target T1, CCT2-Flag (chaperonin-containing TCP1 subunit 2), expressed in MDA-MB-231 cells (human) (UniProt P78371).
T1 sequence: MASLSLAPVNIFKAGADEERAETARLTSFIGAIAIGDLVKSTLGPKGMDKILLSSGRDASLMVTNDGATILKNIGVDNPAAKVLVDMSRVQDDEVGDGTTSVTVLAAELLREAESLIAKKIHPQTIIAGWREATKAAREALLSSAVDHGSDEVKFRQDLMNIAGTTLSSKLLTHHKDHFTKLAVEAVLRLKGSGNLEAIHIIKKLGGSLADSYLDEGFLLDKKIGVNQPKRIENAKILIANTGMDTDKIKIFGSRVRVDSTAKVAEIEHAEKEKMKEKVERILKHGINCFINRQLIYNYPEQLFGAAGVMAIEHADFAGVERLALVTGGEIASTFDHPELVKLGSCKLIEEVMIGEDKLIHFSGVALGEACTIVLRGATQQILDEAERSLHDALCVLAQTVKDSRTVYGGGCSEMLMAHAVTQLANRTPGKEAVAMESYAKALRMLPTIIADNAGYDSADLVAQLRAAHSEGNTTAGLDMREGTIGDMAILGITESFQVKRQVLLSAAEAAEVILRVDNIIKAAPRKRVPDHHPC
Nature of the assay: affinity purification with mass spectrometry; CCT2-Flag plasmid transfected into MDA-MB-231 cells; co-IP, silver staining, mass spectrometry (text: tandem affinity purification coupled with mass spectrometry).

For the substance “Trim21 (ubiquitin E3 ligase), endogenous in human breast cancer cells (from UniProt P19474 1-475)”, the binding result was “binds”.
